Assay results from article PMC4326362.
These are yes or no findings as the source states them, for the method shown. For some assays here: Binding seen in cells or lysates may run through a third protein. Some entries that bind do so weakly or less than the wild type.

Amino acid sequences for entries named in this document (tags omitted). Residues count along the entry.
UniProt Q9JHG7: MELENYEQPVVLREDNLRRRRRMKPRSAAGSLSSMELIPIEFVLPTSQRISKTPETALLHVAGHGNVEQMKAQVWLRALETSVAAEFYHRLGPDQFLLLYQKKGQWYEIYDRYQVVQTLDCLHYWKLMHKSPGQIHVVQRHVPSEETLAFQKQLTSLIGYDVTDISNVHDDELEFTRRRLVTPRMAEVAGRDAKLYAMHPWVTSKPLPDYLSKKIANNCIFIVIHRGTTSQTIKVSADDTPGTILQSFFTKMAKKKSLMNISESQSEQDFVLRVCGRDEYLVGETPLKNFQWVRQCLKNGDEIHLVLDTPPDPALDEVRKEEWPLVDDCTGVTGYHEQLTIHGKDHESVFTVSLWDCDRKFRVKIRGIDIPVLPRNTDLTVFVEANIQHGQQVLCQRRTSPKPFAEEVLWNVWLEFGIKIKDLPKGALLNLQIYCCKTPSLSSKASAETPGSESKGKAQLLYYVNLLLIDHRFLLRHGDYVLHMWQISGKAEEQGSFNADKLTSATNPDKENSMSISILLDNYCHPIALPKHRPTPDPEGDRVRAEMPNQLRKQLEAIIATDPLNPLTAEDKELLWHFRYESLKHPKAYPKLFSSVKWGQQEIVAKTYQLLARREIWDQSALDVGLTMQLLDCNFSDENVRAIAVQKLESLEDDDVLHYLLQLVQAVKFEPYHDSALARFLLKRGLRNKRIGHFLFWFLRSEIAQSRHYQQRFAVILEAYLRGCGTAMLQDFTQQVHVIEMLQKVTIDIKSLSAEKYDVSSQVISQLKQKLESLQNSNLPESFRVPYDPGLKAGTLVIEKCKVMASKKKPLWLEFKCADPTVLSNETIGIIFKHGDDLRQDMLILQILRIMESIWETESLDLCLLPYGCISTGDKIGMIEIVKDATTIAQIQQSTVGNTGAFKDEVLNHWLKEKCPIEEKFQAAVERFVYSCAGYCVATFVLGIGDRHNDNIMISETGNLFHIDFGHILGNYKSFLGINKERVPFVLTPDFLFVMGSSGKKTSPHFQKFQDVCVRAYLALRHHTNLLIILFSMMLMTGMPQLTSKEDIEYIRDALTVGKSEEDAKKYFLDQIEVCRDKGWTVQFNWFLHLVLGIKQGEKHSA
UniProt P48736, residues 141-311: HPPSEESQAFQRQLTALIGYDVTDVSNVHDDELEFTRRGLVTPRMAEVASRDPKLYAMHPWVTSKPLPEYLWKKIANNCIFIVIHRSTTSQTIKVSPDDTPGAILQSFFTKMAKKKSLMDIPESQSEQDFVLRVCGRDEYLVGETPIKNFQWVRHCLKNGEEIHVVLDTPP

Columns and labels:
[1] = target: T1, CNGA1 of mouse rod outer segments (mouse (endogenous in ROS)) (UniProt P29974); experiment: co-IP; solubilized ROS immunoprecipitated with anti-CNGA1 antibody or non-immune IgG; PI3K detected in the immunoprecipitates by its activity on PI-4,5-P2 and [γ32P]ATP (TLC, scintillation counting); also from dark- and light-adapted mice and from IR wild-type and IR knockout mice
T1 sequence: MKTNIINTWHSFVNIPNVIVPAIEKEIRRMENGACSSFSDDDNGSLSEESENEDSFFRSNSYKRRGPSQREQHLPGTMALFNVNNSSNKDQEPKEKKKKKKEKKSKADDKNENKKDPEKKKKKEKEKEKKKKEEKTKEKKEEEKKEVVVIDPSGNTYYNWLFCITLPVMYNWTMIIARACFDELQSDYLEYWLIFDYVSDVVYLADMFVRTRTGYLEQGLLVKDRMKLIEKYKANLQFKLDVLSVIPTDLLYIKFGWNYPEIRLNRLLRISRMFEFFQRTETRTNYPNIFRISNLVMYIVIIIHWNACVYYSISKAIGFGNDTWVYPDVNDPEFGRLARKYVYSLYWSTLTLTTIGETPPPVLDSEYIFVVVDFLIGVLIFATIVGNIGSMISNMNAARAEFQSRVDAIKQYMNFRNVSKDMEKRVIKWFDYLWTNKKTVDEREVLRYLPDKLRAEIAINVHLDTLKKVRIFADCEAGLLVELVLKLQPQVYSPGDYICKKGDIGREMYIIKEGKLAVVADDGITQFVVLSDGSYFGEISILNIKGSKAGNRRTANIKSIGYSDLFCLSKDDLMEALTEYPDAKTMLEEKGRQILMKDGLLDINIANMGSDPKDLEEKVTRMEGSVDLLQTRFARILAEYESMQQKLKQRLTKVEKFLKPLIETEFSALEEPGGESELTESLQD

[2] = target: T2, full-length CNGA1 in the pDHB1 membrane-based yeast two-hybrid bait vector (UniProt Q00194); experiment: two-hybrid; split ubiquitin-based membrane yeast two-hybrid in DSY-1 yeast; full-length CNGA1 in pDHB1 as bait, preys in pDL2-Nx; filter lift and liquid β-galactosidase assays
T2 sequence: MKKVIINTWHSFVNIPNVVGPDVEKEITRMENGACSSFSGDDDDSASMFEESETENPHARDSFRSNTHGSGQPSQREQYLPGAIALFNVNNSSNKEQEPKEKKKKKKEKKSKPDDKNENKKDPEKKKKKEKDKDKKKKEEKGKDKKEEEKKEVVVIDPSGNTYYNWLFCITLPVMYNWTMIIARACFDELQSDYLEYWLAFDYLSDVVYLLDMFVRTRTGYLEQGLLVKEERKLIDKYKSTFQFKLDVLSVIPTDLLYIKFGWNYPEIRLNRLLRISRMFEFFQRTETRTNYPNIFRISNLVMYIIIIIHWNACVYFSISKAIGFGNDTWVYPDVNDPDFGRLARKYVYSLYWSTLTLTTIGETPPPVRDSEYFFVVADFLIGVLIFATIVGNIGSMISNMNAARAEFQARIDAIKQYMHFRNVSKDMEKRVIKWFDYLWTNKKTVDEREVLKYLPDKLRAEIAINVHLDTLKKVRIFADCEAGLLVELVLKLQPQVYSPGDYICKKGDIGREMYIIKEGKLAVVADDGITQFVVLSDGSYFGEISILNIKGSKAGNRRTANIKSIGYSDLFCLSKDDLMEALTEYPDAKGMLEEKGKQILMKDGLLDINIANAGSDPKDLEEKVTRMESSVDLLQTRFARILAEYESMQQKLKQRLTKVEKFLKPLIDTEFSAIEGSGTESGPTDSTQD

Substance	binding [1]	binding [2]
PI3Kγ of mouse rod outer segments (from UniProt Q9JHG7 1-1102) (enzyme)	binds	–
RA-PI3Kγ in the pDL2-Nx prey vector (from UniProt P48736 141-311) (domain or fragment)	–	binds
